# Measurements taken from patent publication US20070197602A1, “Combined pharmaceutical composition” (priority 2004, published 2007).
# At least one structure is not confirmed: it was looked up by name or label, or the drawing left a doubt.
# Test system: streptozotocin-induced diabetic model
# Assay: Test Example 3: sucrose loading in streptozotocin-induced diabetic model, plasma glucose (GLU)
# Format: in vivo, rat
# Settings: STZ rats; sucrose loading 2.5 g/kg; STZ-treated control increased about 20%
# Method: At 13 days after administration (Day 13), blood was collected from the rats, and plasma glucose (GLU) concentration was measured. […] From Day 14 (14 days after STZ administration), test articles shown in Table 1 were orally administered to the rats once a day for 9 days. At 23 days after STZ administration (Day 23), the GLU concentration was measured (previous value: GLU concentration before sucrose loading) (incidentally, the test articles were not administered on Day 23). […] Moreover, “N” represents the number of rats for determining the GLU concentration in the Table.
structure (smiles),measurement,value
CC(C)OC(=O)C(C)(C)Oc1ccc(C(=O)c2ccc(Cl)cc2)cc1 [Fenofibrate],blood sugar level change by the sucrose loading (in words),increased
